Assay results reported in PubChem BioAssay AID1688 (National Center for Advancing Translational Sciences (NCATS), 2009).
About 2,400 (1.1%) of roughly 220,000 compounds were called active. Inconclusive means that the source gave no clear call. Such entries were picked first, then a sample of the others. The call rests on the fitted dose curve; in most records, active means well fitted inhibition curve with a large enough effect; inconclusive means small, poorly fitted or top-dose-only effect, or effect the other way; inactive means no such curve, though single readings can be large or run the other way. Where the call is inconclusive, the potency comes from a doubtful curve fit.

Assay: qHTS Multiplex Assay to Identify Dual Action Probes in a Cell Model of Huntington: Aggregate Formation (GFP); further: nearly all actives have a fitted effect of over 60% in size
Conditions: PC12 HttQ103-GFP aggregates, Acumen cytometry, 40 h; activity change, negative = inhibition: at 46.1 µM (top of the series) unless noted
How it was run: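 PC12 cells stably carrying ecdysone-inducible HTT exon 1 Q103–GFP were induced with tebufenozide (100 nM final) and treated with library compounds in titration. GFP aggregates in lysates were counted by laser scanning cytometry.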
On the % scale 0 is the no-effect control and ±100 the full control effect; potency means the concentration at half of the fitted maximal effect.

Row | SMILES | Potency | activity change, negative = inhibition
1 | O=C(Nc1ccncc1)Nc1ccc(F)cc1F | active: 35.5 µM | –
2 | N#CC1=C(N)OC(c2ccccc2)=C(C#N)C1c1ccc2c(c1)OCO2 (configuration not stated) | inactive | –
3 | CC1CCCN(C(=O)c2ccc3c(=O)n(C4CCCC4)c(=S)[nH]c3c2)C1 (configuration not stated) | inconclusive: 20 µM [inhibitor, single point] | –
4 | O=C(N/N=C/c1ccccc1O)C1SCCCS1 | inconclusive: 14.1 µM [inhibitor, single point] | –
5 | CCCCSc1nnc(-c2ccc(C)cc2)n1C | inconclusive: 10 µM [inhibitor, single point] | –
6 | Cc1ccc(C)c(N2N=C(C(=O)Nc3nccs3)CCC2=O)c1 | inactive | –
7 | COc1ccc(C2NC(=O)NC(c3ccccc3)=C2c2nc3ccccc3s2)cc1 (configuration not stated) | inconclusive: 25.1 µM [inhibitor, single point] | –
8 | Cc1ccc(-n2c(C)cc(C(=O)Cn3nc(C(=O)O)c4ccccc4c3=O)c2C)cc1 | inconclusive: 3.16 µM [inhibitor, partial curve] | –
9 | Cn1c(CC(=O)Nc2ccc(Cl)c(Cl)c2)nnc1SCC(=O)N1CCN(c2ccccc2)CC1 | inconclusive: 31.6 µM [inhibitor, single point] | –
10 | CCOc1ccccc1NC(=O)CCCc1nc2ccccc2c(=O)[nH]1 | inactive | –
11 | CCOc1ccc2[nH]c(=O)c(CN(Cc3ccc(F)cc3)C(=O)c3ccco3)cc2c1 | inconclusive: 15.8 µM [inhibitor, single point] | –
12 | O=C1OCC/C1=C\c1ccc(O)cc1 | – | inactive: -11.9% [at 9.22 µM]
13 | O=[N+]([O-])c1ccc(SCCc2ccccn2)cc1 | – | inactive: -12.2% [at 9.22 µM]
14 | O=C1CC(N2CCOCC2)C(=O)N1c1ccc2c(c1)OCO2 (configuration not stated) | inactive | –
15 | COC(=O)/C=C1\SC(=NC(=O)c2ccc(C)cc2)NC1=O | inconclusive: 1.58 µM [activator, full curve, poor fit] | –
16 | COc1ccc(/C=N/N2C(=O)CSC2=S)cc1 | inactive | –
17 | CC(C)c1nnc(NC(=O)CCC(=O)NC2CCCc3ccccc32)s1 (configuration not stated) | inconclusive: 10 µM [activator, partial curve, poor fit] | –
18 | CC1(C)CC(=O)c2sc(NC(=O)c3ccc4ncsc4c3)nc2C1 | inactive | –
19 | c1ccc(COc2ccc(CN3CCN(c4ccccn4)CC3)cc2)cc1 | inconclusive: 2.82 µM [inhibitor, partial curve] | –
20 | COc1ccc(NC(=O)C2CCN(c3cc(-c4ccccc4)nc4ncnn34)CC2)cc1OC | inconclusive: 17.8 µM [inhibitor, single point] | –
21 | CCCC1(C(=O)OC)NC(c2ccc(OC)c(OC)c2)C2C(=O)N(c3ccc4c(c3)OCO4)C(=O)C21 (configuration not stated) | inconclusive: 0.631 µM [activator, full curve, poor fit] | –
22 | C=CCn1c(O)c(N=NC(=S)Nc2ccccc2F)c2ccccc21 | inconclusive: 10 µM [inhibitor, partial curve] | –
23 | O=C(CSc1nc2ccccc2c(=O)n1CC1CCCO1)NCC1CCCO1 (configuration not stated) | inactive | –
24 | CCOC(=O)c1cc(C#N)c(N2CCN(C(=O)c3ccccc3)CC2)nc1C(F)(F)F | – | inactive: -1.57% [at 9.22 µM]

Row | SMILES | Potency | activity change, negative = inhibition
25 | CCN1CCCC1CN(Cc1cc2cc(C)ccc2[nH]c1=O)C(=O)Nc1ccccc1OC (configuration not stated) | inactive | –
26 | COC(=O)c1ccc2c(=O)[nH]c(CSc3nc(C)cs3)nc2c1 | inconclusive: 2 µM [activator, partial curve] | –
27 | Oc1c(N=NC(=S)Nc2ccccc2F)c2ccccc2n1Cc1ccccc1F | inactive | –
28 | S=C(Nc1ccc(N2CCOCC2)cc1)Nc1ccc2nc(-c3ccco3)c(-c3ccco3)nc2c1 | inactive | –
29 | Cc1cccc(CSc2ccc3nnc(-c4cccnc4)n3n2)c1 | inconclusive: 35.5 µM [activator, single point] | –
30 | CCn1cc(C(=O)O)c(=O)c2cnc(N3CCN(C(=S)NC(=O)c4ccccc4Cl)CC3)nc21 | – | inactive: 1.58% [at 9.22 µM]
31 | CCOc1ccc(Br)cc1S(=O)(=O)Nc1ccc(Cl)c(S(=O)(=O)N(C)C)c1 | inconclusive: 35.5 µM [inhibitor, single point] | –
32 | O=C(c1ccc(-c2ccc(Cl)cc2)o1)N1CCN(c2ccc([N+](=O)[O-])cc2Cl)CC1 | active: 7.08 µM | –
33 | COc1ccc(CC(=O)Nc2nnc(SCc3ccccc3)s2)cc1S(=O)(=O)N1CCOCC1 | inconclusive: 35.5 µM [inhibitor, single point] | –
34 | CNc1ccc(/C=C(\CCC(=O)O)c2nc3ccccc3s2)cc1[N+](=O)[O-] | inactive | –
35 | N=c1c(C(=O)NCc2ccco2)cc2c(=O)n3ccccc3nc2n1Cc1ccccc1 | inconclusive: 1.58 µM [activator, partial curve] | –
36 | CC(=O)Nc1c(C(=O)C2CC2)oc2ccccc12 | inconclusive: 2.82 µM [inhibitor, partial curve] | –
37 | Nc1nc(-c2ccc(Br)cc2)c(S(=O)(=O)c2ccccc2)s1 | inconclusive: 35.5 µM [activator, single point] | –
38 | COc1ccc(NC(=O)CN(c2cccc(C(F)(F)F)c2)S(C)(=O)=O)cc1OC | inconclusive: 0.562 µM [inhibitor, full curve, poor fit] | –
39 | Cc1ccc(C(=O)NC2(C(F)(F)F)NC(=O)N(c3ccc(Cl)cc3)C2=O)cc1 (configuration not stated) | inactive | –
40 | O=S(=O)(NCC1CCCO1)c1cnc(Cl)c(Br)c1 (configuration not stated) | inactive | –
41 | Cn1c(=N)n(CC(=O)O)c2ccccc21 | active: 5.62 µM | –
42 | COc1ccc(C(Nc2ccc(S(=O)(=O)NCC3CCCO3)cc2)C(=O)NC(C)(C)C)cc1OC (configuration not stated) | – | inactive: -9.17% [at 9.22 µM]
43 | O=C(CNS(=O)(=O)c1cccs1)N1CCN(c2ccccn2)CC1 | inactive | –
44 | N#C/C(=C\c1ccc(Sc2nc3ccccc3[nH]2)o1)c1ccccc1 | inconclusive: 12.6 µM [inhibitor, single point] | –
45 | CC(C)CCc1noc(CN2CCN(c3ccc(Cl)cn3)CC2)n1 | – | inactive: -1.66% [at 9.22 µM]
46 | CC(=O)N1CCN(c2ccc(NC(=O)c3ccc4c(c3)OCO4)cc2)CC1 | inconclusive: 3.55 µM [activator, single point] | –
47 | CC1(C)CC(=O)C=C(N2CCN(C3=CC(=O)CC(C)(C)C3)CC2)C1 | inactive | –
48 | Cc1[nH]c2ccccc2c1Cc1n[nH]c(=S)n1C | inactive | –

One compound at a time (already shown). Order of values: Potency | activity change, negative = inhibition
Nc1nc(-c2ccc(Br)cc2)c(S(=O)(=O)c2ccccc2)s1 as listed: inconclusive: 35.5 µM [activator, single point] | –
c1ccc(COc2ccc(CN3CCN(c4ccccn4)CC3)cc2)cc1 as listed: inconclusive: 2.82 µM [inhibitor, partial curve] | –
Cc1ccc(C(=O)NC2(C(F)(F)F)NC(=O)N(c3ccc(Cl)cc3)C2=O)cc1 (configuration not stated) as listed: inactive | –
COc1ccc(NC(=O)C2CCN(c3cc(-c4ccccc4)nc4ncnn34)CC2)cc1OC as listed: inconclusive: 17.8 µM [inhibitor, single point] | –

The listing continues.

Row | SMILES | Potency | activity change, negative = inhibition
49 | CC(C)(C)C(=O)NC(=S)NNC(=O)C(c1ccccc1)c1ccccc1 | inconclusive: 7.08 µM [inhibitor, partial curve] | –
50 | Cc1sc2ncnc(OCC(=O)N3CCN(C(=O)c4ccco4)CC3)c2c1C | inactive | –
51 | CCC(=O)Nc1sc2c(c1C(=O)N(C)C)CCCCC2 | inconclusive: 1.26 µM [inhibitor, single point] | –
52 | CC(=O)NN1C(=O)c2ccccc2NC1c1ccco1 (configuration not stated) | inactive | –
53 | O=C(Nc1cnn(Cc2ccccc2)c1)NC12CC3CC(CC(C3)C1)C2 | inconclusive: 11.2 µM [inhibitor, single point] | –
54 | O=C(Nc1ccc(OC(F)(F)F)cc1)c1cnc2n(c1=O)CCS2 | inconclusive: 5.01 µM [inhibitor, partial curve] | –
55 | O=C(NNc1c2ccccc2nc2ccccc12)C(O)c1ccccc1 (configuration not stated) | – | inactive: 10.3% [at 9.22 µM]
56 | Cc1cccc(NC(=S)NCc2ccc3c(c2)OCO3)c1C | inconclusive: 31.6 µM [activator, partial curve] | –
57 | CN(Cc1cccs1)CC(O)COCc1ccco1 (configuration not stated) | inconclusive: 0.631 µM [activator, single point] | –
58 | c1ccc(CSc2nnc(-c3cccnc3)o2)cc1 | inconclusive: 35.5 µM [inhibitor, single point] | –
59 | O=C(C1CCCN(S(=O)(=O)c2ccccc2)C1)N1CCCc2ccccc21 (configuration not stated) | inconclusive: 35.5 µM [inhibitor, single point] | –
60 | COc1ccc(-c2nnc(NC(=O)c3ccc(S(=O)(=O)N4COCC4(C)C)cc3)o2)cc1 | active: 31.6 µM | –
61 | COc1cc(OC)nc(NC(=O)CN2CCN(c3ccc(F)cc3)CC2)n1 | inconclusive: 0.355 µM [inhibitor, full curve, poor fit] | –
62 | COC(C[C@H]1O[C@H]1[C@H](O)[C@@H](C)OCc1ccccc1)OC | inconclusive: 4.47 µM [activator, partial curve] | –
63 | Cc1ccc(C)c(S(=O)(=O)NCCOC(=O)Nc2sc(=S)n(C)c2C)c1 | inconclusive: 5.62 µM [activator, single point] | –
64 | COc1ccc(CNC(=O)CCCNS(=O)(=O)c2cccc3nonc23)cc1 | active: 3.16 µM | –
65 | Oc1ccc(CN2CCc3ccccc3C2)c2cccnc12 | inconclusive: 3.98 µM [inhibitor, full curve, poor fit] | –
66 | COc1ccccc1C1C2=C(N=c3s/c(=C/c4cccc(OCC(=O)O)c4)c(=O)n31)c1ccccc1CC2 (configuration not stated) | inconclusive: 5.62 µM [inhibitor, single point] | –
67 | COC(=O)CC1C(=O)NCCN1C(=O)c1sc2ccccc2c1Cl (configuration not stated) | – | inactive: 13.5% [at 9.22 µM]
68 | CCc1cc2c(-n3nc(C)cc3C)ncnc2s1 | inconclusive: 31.6 µM [inhibitor, single point] | –
69 | COc1nc(Nc2ccc([N+](=O)[O-])cc2)nc(NC2CCCCC2)n1 | inconclusive: 8.91 µM [inhibitor, partial curve] | –
70 | O=C(NCc1ccccc1)c1cccc(COc2cc(Cl)ccc2Cl)c1 | inactive | –
71 | N/C(=N\c1nc2c(c(=O)[nH]1)CCCC2)Nc1ccccc1Sc1ccccc1 | inconclusive: 3.16 µM [activator, partial curve] | –
72 | CC(C)c1nc(N2CCOCC2)c(C#N)c2c1CCCC2 | inconclusive: 10 µM [inhibitor, partial curve] | –

Two entries from above, set out differently.

| Row | SMILES | Potency | activity change, negative = inhibition |
| --- | --- | --- | --- |
| 53 | O=C(Nc1cnn(Cc2ccccc2)c1)NC12CC3CC(CC(C3)C1)C2 | inconclusive: 11.2 µM [inhibitor, single point] | – |
| 54 | O=C(Nc1ccc(OC(F)(F)F)cc1)c1cnc2n(c1=O)CCS2 | inconclusive: 5.01 µM [inhibitor, partial curve] | – |
